In publication PMC5344419, “The structure of FKBP38 in complex with the MEEVD tetratricopeptide binding-motif of Hsp90” (PLoS ONE, 2017):
Results are given in words; binding and its absence hold for the method and conditions named.

Sequences of proteins named here, by UniProt entry; tags and fusion partners are left off. Residues count along the entry.
UniProt P08238: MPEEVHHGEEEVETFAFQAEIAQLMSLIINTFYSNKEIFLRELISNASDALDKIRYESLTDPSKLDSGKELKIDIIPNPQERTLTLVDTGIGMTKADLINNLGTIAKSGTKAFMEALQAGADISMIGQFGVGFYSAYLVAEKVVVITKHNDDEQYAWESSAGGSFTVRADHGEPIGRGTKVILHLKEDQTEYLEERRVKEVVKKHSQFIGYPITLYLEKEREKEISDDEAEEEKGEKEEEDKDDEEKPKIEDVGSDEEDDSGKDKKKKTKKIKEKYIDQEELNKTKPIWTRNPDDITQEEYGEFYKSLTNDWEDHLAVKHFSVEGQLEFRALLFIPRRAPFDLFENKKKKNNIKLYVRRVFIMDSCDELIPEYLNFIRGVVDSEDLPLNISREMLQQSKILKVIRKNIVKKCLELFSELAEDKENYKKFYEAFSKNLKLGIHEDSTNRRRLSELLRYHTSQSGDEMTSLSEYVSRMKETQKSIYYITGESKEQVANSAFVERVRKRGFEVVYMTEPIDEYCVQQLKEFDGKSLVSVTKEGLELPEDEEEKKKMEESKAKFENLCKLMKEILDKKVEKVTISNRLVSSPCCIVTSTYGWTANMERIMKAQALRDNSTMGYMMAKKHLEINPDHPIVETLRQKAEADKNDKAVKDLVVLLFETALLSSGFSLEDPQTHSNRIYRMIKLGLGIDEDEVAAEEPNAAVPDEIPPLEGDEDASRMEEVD
UniProt Q14318, residues 92-207: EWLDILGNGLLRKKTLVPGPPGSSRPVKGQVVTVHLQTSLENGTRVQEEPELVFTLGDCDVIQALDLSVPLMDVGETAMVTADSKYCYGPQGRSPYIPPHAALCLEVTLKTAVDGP

Target: Full-length human Hsp90β (human) (UniProt P08238)
Experiment: ITC; 700 to 800 μM FKBP construct injected into 50 μM Hsp90 or Hsp70 protein in the cell; ITC200; 20 mM Tris, 300 mM NaCl, 1 mM EDTA pH 7.5; both purified

With “FKBP38 immunophilin domain, amino acids 92-207 (FKBP^92-207) (from UniProt Q14318 92-207) (domain or fragment)” the binding was “no binding (tested: 700 to 800 μM injected into 50 μM)”.
